The text below walks through data of patent publication EP4831176A1, “BICYCLIC FUSED HETEROAROMATIC RING DERIVATIVE, AND PHARMACEUTICAL COMPOSITION AND USE THEREOF” (dated 2026).

The chains behind the UniProt entries cited, without tags or fusion partners.
UniProt O75530, whole entry: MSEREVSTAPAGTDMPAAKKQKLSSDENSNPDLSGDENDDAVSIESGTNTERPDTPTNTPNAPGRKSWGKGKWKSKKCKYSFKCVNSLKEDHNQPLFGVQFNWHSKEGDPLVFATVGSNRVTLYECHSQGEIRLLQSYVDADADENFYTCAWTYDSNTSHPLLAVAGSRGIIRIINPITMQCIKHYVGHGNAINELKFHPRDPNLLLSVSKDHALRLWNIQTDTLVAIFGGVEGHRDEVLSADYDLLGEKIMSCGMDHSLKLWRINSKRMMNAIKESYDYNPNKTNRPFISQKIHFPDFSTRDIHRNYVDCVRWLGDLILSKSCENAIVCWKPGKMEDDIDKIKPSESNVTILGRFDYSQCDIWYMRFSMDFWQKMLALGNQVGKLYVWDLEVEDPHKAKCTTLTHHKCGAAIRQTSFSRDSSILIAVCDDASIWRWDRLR

A word on the IC50: it is the midpoint of a concentration-inhibition curve. As a reminder, the Dmax is the largest share of the target that was removed. A low value points to shallow degradation.

Structures were worked out from names or drawings and are uncertain.

For experiment [1], the system named is Pfeiffer cells. Nature of the experiment: Proliferation inhibition of Pfeiffer tumor cells, Cell Titer-Glo. As to conditions: read-out: CTG IC50, 144 hours incubation. From the text:
In this experiment, Cell Titer-Glo reagent was used to quantitatively analyze the proliferation activity of Pfeiffer cells to detect the inhibitory ability of the compounds on tumor cell proliferation. The specific steps were as follows: • 1. Pfeiffer cells were purchased from Nanjing Cobioer (purchased from ATCC, Catalog No. #CRL2632), subcultured and maintained in logarithmic growth state using RPMI-1640 complete medium (containing 10% v/v fetal bovine serum) according to the supplier's recommended conditions. […] Before cell seeding, cells were collected in a centrifuge tube, centrifuged at 250 rcf for 3 minutes, and the culture medium was discarded. The cells were resuspended in fresh complete medium, and 20 µL of the cell suspension was taken to calculate the cell concentration using a Countstar cell counter. After adjusting the density, cells were seeded into a 384-well plate at 2,000 cells/45 µL and pre-incubated in a 37°C, 5% CO2 incubator for 4 hours. • 3. The negative and positive control groups were treated with 5 µL of control solution (non-complete medium containing 1% v/v DMSO). Compound gradient dilutions were prepared using non-complete medium, and 5 µL of the dilutions were added to the corresponding culture wells. The final concentration of DMSO in the test was 0.1% v/v. Subsequently, the plate was incubated in a 37°C, 5% CO2 incubator for 144 hours. • 4. 40 µL of Cell Titer-Glo reagent was added directly to the cell culture, and the plate was incubated at room temperature in the dark for 30 minutes. The luminescence value was then read on a plate reader, and the results were used to analyze the cell proliferation ratio and compound activity. • 5. The signal value of the negative control group was set as Bottom, and the signal value of the positive control group was set as Top. The compound concentration value (logarithm) was the X-axis, and the luminescence reading at the corresponding concentration was the Y-axis, with HillSlope as the slope factor. A four-parameter logistic model (4PL logistic model) was used for fitting, and the calculation method was as follows:Y = Bottom + (Top - Bottom) / (1 + 10^((Log IC50 - X) × HillSlope))
After fitting, the IC50 value of the compound was calculated, and the proliferation inhibitory activity of the compound was compared based on the IC50 value.
On the technique in general: In ATP-based viability assays light output follows the ATP content of the culture.

The target in experiment [2] is EED protein (Homo sapiens, UniProt O75530). Nature of the experiment: EED protein degradation in Karpas-422 cells, In-cell western (ICW). To be noted: 18 hours incubation. From the text:
In this experiment, In-cell western (ICW) method was used to quantitatively analyze the EED protein expression level in Karpas-422 cells to detect the degradation activity of the compounds on the target protein. The specific steps were as follows: • 1. Karpas-422 cells were purchased from Nanjing Cobioer (Catalog No. CBP60629), subcultured and maintained in logarithmic growth state using RPMI-1640 complete medium (containing 10% v/v fetal bovine serum) according to the supplier's recommended conditions. […] One day before cell seeding, a 384-well plate was coated with 30 µL of coating buffer (phosphate buffered saline containing 30 µg/mL poly-D-lysine) at room temperature for 2 hours. The coating solution was then discarded, and the plate was washed once with 90 µL of phosphate buffered saline, which was then discarded. The plate was allowed to air dry naturally in a clean bench, wrapped around the edges with Parafilm to prevent moisture, and stored in a 4°C refrigerator until use. • 3. Before cell seeding, cells were collected in a centrifuge tube, centrifuged at 250 rcf for 3 minutes, and the culture medium was discarded. The cells were resuspended in fresh complete medium, and 20 µL of the cell suspension was taken to calculate the cell concentration using a Countstar cell counter. After adjusting the density, cells were seeded into the prepared coated plate at 15,000 cells/45 µL and pre-incubated in a 37°C, 5% CO2 incubator for 4 hours. • 4. The negative and positive control groups were treated with 5 µL of control solution (serum-free medium containing 1% v/v DMSO). Compound gradient dilutions were prepared using the control solution, and 5 µL of the dilutions were added to the corresponding culture wells. The final concentration of DMSO in the test was 0.1% v/v. Subsequently, the plate was incubated in a 37°C, 5% CO2 incubator for 18 hours. • 5. The culture plate was removed, and cells were fixed by directly adding 10 µL of fixative solution (phosphate buffered saline containing 3% v/v glutaraldehyde) to the cells and incubating at room temperature for 30 minutes. The liquid was discarded. Subsequently, cells were treated with 30 µL of permeabilization staining solution (phosphate buffered saline containing 0.1% v/v Triton X-100 and 20 µg/mL Hoechst 33342) at room temperature for 30 minutes. The permeabilization solution was discarded, and the fluorescence value (excitation at 360 nm, emission at 460 nm) was read on a microplate reader. • 6. 50 µL of repair solution (50 mM citric acid buffer) was added to all wells, and the plate was incubated at 70°C for 2 hours on a constant temperature incubation shaker. The microplate was then removed, equilibrated to room temperature, and the liquid was discarded. • 7. A sufficient amount of antibody dilution buffer (Tris Buffered Saline-Tween solution containing 1% w/v bovine serum albumin) was prepared and stored in a 4°C refrigerator until use. • 8. Primary antibody dilution (EED antibody diluted 1:1000 with antibody dilution buffer) was prepared. 30 µL of antibody dilution buffer without antibody was added to the negative control group. 30 µL of the primary antibody dilution was added to the cells in the other groups, and the plate was incubated overnight at 4°C. • 9. The primary antibody dilution was discarded. The plate was washed 3 times with 90 µL of Tris Buffered Saline-Tween solution, and the wash solution was discarded. Secondary antibody dilution (HRP-linked antibody diluted 1:500 with antibody dilution buffer) was prepared, and 30 µL was added to the cells. The plate was incubated at room temperature for 2 hours. • 10. The secondary antibody dilution was discarded. The plate was washed 3 times with 90 µL of Tris Buffered Saline-Tween solution, and the wash solution was discarded. 30 µL of TMB substrate solution was added, and the plate was incubated at room temperature in the dark for 15 minutes. Then, 30 µL of stop solution (2 M sulfuric acid) was added to terminate the reaction. […]

Regarding `Cc1nc(-c2cnc(NCc3c(F)ccc4c3CCO4)n3cnc(Cl)c23)ccc1CN1CCC(N2CCN(c3ccc4c(C5CCC(=O)NC5=O)nn(C)c4c3)CC2)C(F)(F)C1` (stereo not shown), the IC50 in experiment [1] was determined as 2.48 nM. The compound further displayed a Dmax in experiment [2] of 51%.

As for `Cn1nc(C2CCC(=O)NC2=O)c2ccc(N3CCC(CN4CCC(NC(=O)c5ccc(-c6cnc(NCc7c(F)ccc8c7CCO8)n7cnc(Cl)c67)cc5)CC4)CC3)cc21` (stereo not shown), the IC50 in experiment [1] was determined as 0.4 nM. The compound further yielded a maximal degradation (Dmax) in experiment [2] of 65%.

As to `Cc1ncsc1-c1ccc([C@H](C)NC(=O)[C@@H]2C[C@@H](O)CN2C(=O)[C@@H](NC(=O)CCCNC(=O)c2ccc(-c3cnc(NCc4c(F)ccc5c4CCO5)n4cnc(C#N)c34)cn2)C(C)(C)C)cc1`, the IC50 in experiment [1] was determined as 17 nM. In addition, in experiment [2], the Dmax is given as 77%.

Compound `Cn1nc(C2CCC(=O)NC2=O)c2ccc(N3CCC(CN4CCC(n5cc(-c6cnc(NCc7c(F)ccc8c7CCO8)n7cnc(Cl)c67)cn5)C(F)(F)C4)CC3)cc21` (stereo not shown) showed a Dmax in experiment [2] of 43%.

In turn, `Cn1nc(C2CCC(=O)NC2=O)c2ccc(N3CCC(CN4CCC(c5ccc(-c6cnc(NCc7c(F)ccc8c7CCO8)n7c(C#N)ncc67)cc5)CC4)CC3)cc21` (stereo not shown) gave a Dmax in experiment [2] of 43%.

In turn, `CCOC(=O)c1cn2c(-c3ccc(C4CCN(CC5CCN(c6ccc7c(C8CCC(=O)NC8=O)nn(C)c7c6)CC5)CC4)cc3)cnc(NCc3c(F)ccc4c3CCO4)c2n1` (stereo not shown) registered a Dmax in experiment [2] of 38%.

`Cn1nc(C2CCC(=O)NC2=O)c2ccc(N3CCC(CN4CCC(c5ccc(-c6cnc(NCc7c(F)ccc8c7CCO8)c7nc(C(=O)O)cn67)cc5)CC4)CC3)cc21` (stereo not shown): the Dmax in experiment [2] was 23%.

`Cc1ncsc1-c1ccc([C@H](C)NC(=O)[C@@H]2C[C@@H](O)CN2C(=O)C(c2cc(NCC3CN(c4ccc(-c5cnc(NCc6c(F)ccc7c6CCO7)n6cnnc56)cc4)C3)no2)C(C)C)cc1` (stereo partly shown): the IC50 in experiment [1] was determined as 163 nM.

Turning to `Cc1cc(CN2CCC(N3CCN(c4ccc5c(C6CCC(=O)NC6=O)nn(C)c5c4)CC3)C(F)(F)C2)ccc1-c1cnc(NCc2c(F)ccc3c2CCO3)n2cc(C#N)nc12` (stereo not shown), the greatest degradation seen (Dmax) in experiment [2] was found to be 41%.

Take `Cc1ncsc1-c1ccc([C@H](C)NC(=O)[C@@H]2C[C@@H](O)CN2C(=O)[C@@H](NC(=O)C2CN(c3ccc(-c4ccc(NCc5c(F)ccc6c5CCO6)n5cnnc45)cc3)C2)C(C)(C)C)cc1`: in experiment [2], the Dmax is 51%.

Consider `Cc1ncsc1-c1ccc([C@H](C)NC(=O)[C@@H]2C[C@@H](O)CN2C(=O)[C@@H](NC(=O)CCn2cc(-c3cnc(NCc4c(F)ccc5c4CCO5)n4cnc(I)c34)cn2)C(C)(C)C)cc1`, for which the Dmax in experiment [2] is given as 46%.

As for `O=C1CCC(N2C(=O)c3ccc(N4CCC5(CCN(C(=O)c6ccc(-c7cnc(NCc8c(F)ccc9c8CCO9)n8cnc(Cl)c78)cc6)CC5)CC4)cc3C2=O)C(=O)N1` (stereo not shown), the Dmax in experiment [2] worked out at 32%.

Consider `O=C1CCC(N2C(=O)c3ccc(N4CCC(CN5CCC(CN6C7CCC6CN(c6cnc(NCc8c(F)ccc9c8CCO9)n8cnnc68)C7)CC5)CC4)cc3C2=O)C(=O)N1` (stereo not shown), for which the Dmax in experiment [2] is listed as 21%.

With `Cc1nc(N2CCC(OC3CCN(c4ccc5c(C6CCC(=O)NC6=O)nn(C)c5c4)CC3)CC2)ccc1-c1cnc(NCc2c(F)ccc3c2CCO3)n2cnc(Cl)c12` (stereo not shown), the Dmax in experiment [2] was determined as 38%.

In experiment [2], `Cc1csc(Nc2ccc([C@H](C)NC(=O)[C@@H]3C[C@@H](O)CN3C(=O)[C@@H](NC(=O)C3CN(c4ccc(-c5cnc(NCc6c(F)ccc7c6CCO7)n6cnnc56)cc4)C3)C(C)(C)C)cc2)n1` showed a Dmax of 68%.

With `Cc1ncsc1-c1ccc([C@H](C)NC(=O)[C@@H]2C[C@@H](O)CN2C(=O)[C@@H](NC(=O)C2CN(c3ccc(-c4cnc(NCc5c(F)ccc6c5CCO6)n5cnnc45)nc3)C2)C(C)(C)C)cc1`, the maximal degradation (Dmax) in experiment [2] is listed as 26%.

`Cc1ncsc1-c1ccc([C@H](C)NC(=O)[C@@H]2C[C@@H](O)CN2C(=O)[C@@H](NC(=O)[C@H]2C[C@@H](Nc3ccc(-c4cnc(NCc5c(F)ccc6c5CCO6)n5cncc45)cc3I)C2)C(C)(C)C)cc1`: the IC50 in experiment [1] is 191 nM.

As to `Cn1nc(C2CCC(=O)NC2=O)c2ccc(N3CC4(CC(CN5CCC(n6cc(-c7cnc(NCc8c(F)ccc9c8CCO9)n8cnc(Cl)c78)c(F)n6)CC5)C4)C3)cc21` (stereo not shown), the Dmax in experiment [2] is listed as 27%.

As to `CC1(C)CN(c2ccc3c(c2)C(=O)N(C2CCC(=O)NC2=O)C3=O)CC(C)(C)C1NC(=O)c1ccc(-c2cnc(NCc3c(F)ccc4c3CCO4)n3cnc(Cl)c23)cc1` (stereo not shown), the IC50 in experiment [1] turned out to be 188 nM.

`Cc1ncsc1-c1ccc([C@H](C)NC(=O)[C@@H]2C[C@@H](O)CN2C(=O)[C@@H](NC(=O)[C@H]2C[C@@H](NC(=O)c3ccc(-c4cnc(NCc5c(F)ccc6c5CCO6)n5cncc45)cn3)C2)C(C)(C)C)cc1` came in with a Dmax in experiment [2] of 57%.

`Cc1cc(CN2CCC(N3CCN(c4ccc(NC5CCC(=O)NC5=O)cc4F)CC3)C(F)(F)C2)ccc1-c1cnc(NCc2c(F)ccc3c2CCO3)n2cnc(Cl)c12` (stereo not shown) came in with a Dmax in experiment [2] of 27%.

For the compound `Cc1ncsc1-c1ccc([C@H](C)NC(=O)[C@@H]2C[C@@H](O)CN2C(=O)[C@@H](NC(=O)C2CN(c3ccc(-c4cnc(NCc5c(F)ccc6c5CCO6)n5cncc45)cc3S(C)(=O)=O)C2)C(C)(C)C)cc1`, the IC50 in experiment [1] is 176 nM.

The compound `Cc1ncsc1-c1ccc(C2CCCN2C(=O)[C@@H]2C[C@@H](O)CN2C(=O)[C@@H](NC(=O)C2CN(c3ccc(-c4cnc(NCc5c(F)ccc6c5CCO6)n5cnnc45)cc3)C2)C(C)(C)C)cc1` (stereo partly shown) gave a Dmax in experiment [2] of 22%.

Compound `Cn1nc(C2CCC(=O)NC2=O)c2ccc(N3CCC(CN4CCC(c5ccc(-c6cnc(NCc7c(F)ccc8c7CCO8)c7nc(C(N)=O)cn67)cc5)CC4)CC3)cc21` (stereo not shown) had a Dmax in experiment [2] of 54%.

In turn, `Cc1ncsc1-c1ccc([C@H](C)NC(=O)[C@@H]2C[C@@H](O)CN2C(=O)[C@@H](NC(=O)CCCC(=O)N2CCC3(CCc4cc(-c5cnc(NCc6c(F)ccc7c6CCO7)n6cnc(S(C)(=O)=O)c56)ccc43)CC2)C(C)(C)C)cc1` had a Dmax in experiment [2] of 72%.

In experiment [2], `O=C1CCC(N2C(=O)c3ccc(N4CCC(CN5CCN(c6ccc(-c7cnc(NCc8c(F)ccc9c8CCO9)n8cnc(Cl)c78)cc6)CC5)CC4)cc3C2=O)C(=O)N1` (stereo not shown) returned a Dmax of 35%.

In the case of `Cc1ncsc1-c1ccc([C@H](C)NC(=O)[C@@H]2C[C@@H](O)CN2C(=O)C(c2cc(N3CCN(CC4CCN(c5ccc(-c6cnc(NCc7c(F)ccc8c7CCO8)n7cnc(Cl)c67)cc5)CC4)CC3)no2)C(C)C)cc1` (stereo partly shown), the IC50 in experiment [1] amounted to 58 nM.

In turn, `Cc1ncsc1-c1ccc([C@H](C)NC(=O)[C@@H]2C[C@@H](O)CN2C(=O)[C@@H](NC(=O)C2CN(C3CN(c4ccc(-c5cnc(NCc6c(F)ccc7c6CCO7)n6cnnc56)cn4)C3)C2)C(C)(C)C)cc1` had a Dmax in experiment [2] of 39%.
